Test results reported in publication PMC8564675.
These are yes or no findings as the source states them, for the method shown. Binding seen in cells or lysates may run through a third protein. Some entries that bind do so weakly or less than the wild type.

Protein sequences, listed by entry. Tags and fused reporters are not part of them. Lines headed by an entry give the natural chain unless they say otherwise; changes in a name come on top.
UniProt Q15542: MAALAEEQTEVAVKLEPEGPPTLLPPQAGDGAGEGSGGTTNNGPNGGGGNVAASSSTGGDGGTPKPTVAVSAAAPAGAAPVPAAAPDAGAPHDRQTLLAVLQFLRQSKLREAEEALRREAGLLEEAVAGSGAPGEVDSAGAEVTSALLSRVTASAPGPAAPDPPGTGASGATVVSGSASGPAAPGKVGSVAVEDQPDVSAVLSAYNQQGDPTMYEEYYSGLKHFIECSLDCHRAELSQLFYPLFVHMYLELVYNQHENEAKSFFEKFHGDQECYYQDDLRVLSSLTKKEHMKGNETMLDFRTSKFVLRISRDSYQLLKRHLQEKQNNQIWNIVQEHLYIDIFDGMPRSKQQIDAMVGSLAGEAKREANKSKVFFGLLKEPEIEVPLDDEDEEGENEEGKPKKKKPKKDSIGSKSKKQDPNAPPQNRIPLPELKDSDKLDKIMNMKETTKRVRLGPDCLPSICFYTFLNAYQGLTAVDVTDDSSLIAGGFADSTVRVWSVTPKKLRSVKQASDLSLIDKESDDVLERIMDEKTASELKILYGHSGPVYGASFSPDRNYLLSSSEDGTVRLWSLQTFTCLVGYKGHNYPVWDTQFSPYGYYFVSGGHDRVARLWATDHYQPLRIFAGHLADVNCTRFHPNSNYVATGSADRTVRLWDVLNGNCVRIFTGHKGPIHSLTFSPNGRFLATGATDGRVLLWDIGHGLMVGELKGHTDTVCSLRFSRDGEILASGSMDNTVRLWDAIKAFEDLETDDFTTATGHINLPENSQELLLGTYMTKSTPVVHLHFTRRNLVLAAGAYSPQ

How the values were obtained:
Assay in all cases: co-IP; 8TAF: anti-TAF10 IP from extracts of Sf9 cells coinfected with Baculoviruses for TAF2-TAF5-TAF6-TAF9-TAF4-TAF12, TAF10 and WT TAF8 or a TAF8 deletion; extract at 100 mM KCl, overnight at 4 °C, washes with IP500 and IP100 buffer; western blot and silver stain
[1] = target: T1, human TAF8Δ185–224 (human) (UniProt Q7Z7C8)
T1 sequence: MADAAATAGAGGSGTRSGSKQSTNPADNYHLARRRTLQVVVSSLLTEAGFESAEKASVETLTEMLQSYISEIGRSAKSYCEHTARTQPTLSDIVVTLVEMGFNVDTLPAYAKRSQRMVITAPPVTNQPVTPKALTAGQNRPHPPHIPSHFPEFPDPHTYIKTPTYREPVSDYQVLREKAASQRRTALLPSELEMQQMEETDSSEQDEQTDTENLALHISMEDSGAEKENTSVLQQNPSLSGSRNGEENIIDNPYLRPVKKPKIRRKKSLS

[2] = target: T2, human TAF8Δ272-Stop (human) (UniProt Q7Z7C8)
T2 sequence: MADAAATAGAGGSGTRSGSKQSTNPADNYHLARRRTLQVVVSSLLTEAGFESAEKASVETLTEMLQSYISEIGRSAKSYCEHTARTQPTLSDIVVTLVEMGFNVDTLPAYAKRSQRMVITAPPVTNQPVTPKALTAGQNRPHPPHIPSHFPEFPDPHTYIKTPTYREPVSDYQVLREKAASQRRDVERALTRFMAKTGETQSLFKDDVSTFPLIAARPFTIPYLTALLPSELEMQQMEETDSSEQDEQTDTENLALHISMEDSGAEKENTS

[3] = target: T3, human TAF8Δ141–184 (human) (UniProt Q7Z7C8)
T3 sequence: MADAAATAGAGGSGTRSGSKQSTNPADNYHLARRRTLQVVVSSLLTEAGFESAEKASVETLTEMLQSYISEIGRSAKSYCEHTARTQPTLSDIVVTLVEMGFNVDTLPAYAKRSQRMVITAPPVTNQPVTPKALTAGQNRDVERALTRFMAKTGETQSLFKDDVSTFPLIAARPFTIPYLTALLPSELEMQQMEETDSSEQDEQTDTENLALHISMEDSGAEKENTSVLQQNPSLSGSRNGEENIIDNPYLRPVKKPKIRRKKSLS

[4] = target: T4, human TAF8 with the N-terminal region (aa 1–23) deleted (human) (UniProt Q7Z7C8)
T4 sequence: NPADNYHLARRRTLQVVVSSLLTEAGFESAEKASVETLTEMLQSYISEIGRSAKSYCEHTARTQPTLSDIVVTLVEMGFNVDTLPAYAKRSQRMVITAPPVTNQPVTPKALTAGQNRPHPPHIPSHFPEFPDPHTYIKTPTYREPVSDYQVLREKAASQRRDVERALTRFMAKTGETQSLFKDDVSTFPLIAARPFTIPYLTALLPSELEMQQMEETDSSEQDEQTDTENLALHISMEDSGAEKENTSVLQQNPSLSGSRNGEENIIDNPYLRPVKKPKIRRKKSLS

[5] = target: T5, human TAF8Δ225–271 (human) (UniProt Q7Z7C8)
T5 sequence: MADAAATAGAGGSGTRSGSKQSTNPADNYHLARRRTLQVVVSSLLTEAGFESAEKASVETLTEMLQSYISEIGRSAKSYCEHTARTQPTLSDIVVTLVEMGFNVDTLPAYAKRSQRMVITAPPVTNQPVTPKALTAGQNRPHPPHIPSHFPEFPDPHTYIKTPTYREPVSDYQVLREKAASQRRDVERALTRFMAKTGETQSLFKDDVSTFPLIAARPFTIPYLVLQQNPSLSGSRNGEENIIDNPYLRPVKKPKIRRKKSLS

Measured: binding

5TAF core complex (TAF5-TAF6-TAF9-TAF4-TAF12), recombinant (from UniProt Q15542 1-800; P49848 1-677; Q16594 1-264; O00268 1-1085; Q16514 1-161)
binds: all assays above
